In paper PMC12040169 (PLOS Biology, 2025):
The list shows a part of the results.

These compounds were tested on T1, CTL2-GFP (C. trachomatis L2/434/Bu, GFP-expressing). Settings: bulk GFP, single well; 28.5 h, 10 µM; inhibitor.
T1 construct: L2/434/Bu, GFP-expressing
Design: species or system HeLa; Intracellular C. trachomatis growth in HeLa cells, bulk GFP fluorescence relative to DMSO

Row | Compound | % of control remaining
1 | COCCN(Cc1cnn(C)c1)Cc1cc(O)c2cc(C)ccc2n1 [CBK306723] | 116.415%
2 | Cc1ccc(C)c(S(=O)(=O)NCCCn2ccnc2)c1 [CBK262205] | 96.3549%
3 | COc1ccc(C)cc1CC(=O)N(C)CCN1CCCCC1 [CBK282750] | 129.018%
4 | CC(C)(C)c1ccc(C(=O)Nc2ccccc2C(=O)Nc2ccc(C(=O)O)cc2)cc1 [CBK268626] | 142.335%
5 | CC(C)c1ccnc(C(C)Sc2nc(N)c(Br)c(Cl)n2)c1 (centres unmarked) [CBK016828] | 106.796%
6 | COC(=O)c1c(NC(=O)c2cc(C)on2)sc(C(=O)Nc2ccc(Cl)cc2)c1C [CBK268116] | 129.766%
7 | CC(C)N1CCC(C(=O)NC(=O)NCCOc2cccc3ccccc23)CC1 [CBK034807] | 100%
8 | Cn1ncc(Cl)c1C1CCCCCN1S(=O)(=O)c1ccc2[nH]c(=O)[nH]c(=O)c2c1 (centres unmarked) [CBK286303] | 105.392%
9 | Cc1cccc(N(CC(=O)NCc2ccco2)S(=O)(=O)c2ccccc2)c1 [CBK263571] | 86.706%
10 | COCCc1ccccc1NC1CCN(c2nccs2)CC1 [CBK305476] | 129.794%
11 | NCC(NC(=O)c1cnc(-c2ccncc2)s1)C1CCCCC1 (centres unmarked) [CBK306502C] | 71.935%
12 | Cc1ccsc1-c1nc2cnccn2c1NC1CCCC1 [CBK283524] | 118.442%
13 | Cc1cnc2[nH]c(C3CCCN(C(=O)c4cccnc4C)C3)cc2c1 (centres unmarked) [CBK285169] | 131.737%
14 | O=C(O)Cn1nnnc1CN1CCc2ccccc2C1 [CBK287097] | 108.932%
15 | CCc1cc(C(=O)NC(c2ccncc2)c2cccs2)n(C)n1 (centres unmarked) [CBK281482] | 105.88%
16 | COc1nccnc1-c1cnn(Cc2ccccc2)c1 [CBK107090] | 106.514%
17 | COc1nccc(N2CCC3(CC(=O)NC3=O)C2)c1C#N (centres unmarked) [CBK307246] | 107.923%
18 | CCN(CC)CCC(C(=O)c1ccccc1)S(C)(=O)=O (centres unmarked) [CBK022802] | 153.96%
19 | O/N=C(\Cn1cncn1)c1ccc(Cl)cc1Cl [CBK261085] | 108.267%
20 | O=C(COc1ccc(NS(=O)(=O)c2ccc3oc4cc([N+](=O)[O-])ccc4c3c2)cc1)N1CCOCC1 [CBK268252] | 98.025%
21 | Cc1ccsc1C(=O)N1CCN(Cc2cc(=O)n3ccccc3n2)CC1 [CBK305044] | 104.66%
22 | CC1(C)CC(NC(=O)C(=O)NC2CC(C)(C)NC(C)(C)C2)CC(C)(C)N1 [CBK261951] | 100%
23 | CC(=O)Nc1ccc(/C=N/c2ccccc2)cc1 [CBK012258] | 101.725%
24 | Cc1ccc([N+](=O)[O-])c(OCCNCCN(C)C)c1 [CBK267822C] | 96.4328%
25 | CC1(C)NC(=O)N(CC(O)CN(C2CCCCC2)C2CCCCC2)C1=O (centres unmarked) [CBK264578] | 115.001%
26 | O=C(c1ccc(S(=O)(=O)N2CCCC2)cc1)N1CCN(C/C=C/c2ccccc2)CC1 [CBK263587] | 87.1663%
27 | CCOC(=O)CSc1nnc(-c2ccncc2)n1-c1ccccc1 [CBK263350] | 100%

Row | Compound | % of control remaining
28 | CN(C)CCN1CCN(c2nc(-c3cccc4cccnc34)cnc2N)CC1 [CBK063464] | 130.646%
29 | Cc1ccc(S(=O)(=O)NCCCN2CCOCC2)cc1C [CBK262934] | 147.139%
30 | Cc1cccn2c(=O)cc(CN3CCC(n4ccnc4)CC3)nc12 [CBK305519] | 111.934%
31 | O=C(COc1nc2ccccc2s1)N1N=CCC1c1ccccc1 (centres unmarked) [CBK270188] | 134.947%
32 | CC(C)Nc1nc2cc(Cl)c(Cl)cc2nc1OCCN(C)C [CBK113419] | 100.134%
33 | CC1CN(c2cc(CO)c(F)cn2)CC2(CCOC2C)O1 (centres unmarked) [CBK304754] | 110.607%
34 | COc1ccccc1-c1cnc2[nH]c(=O)n([C@@H](C)c3ccccc3)c2n1 [CBK064717] | 131.765%
35 | Nc1ccccc1Sc1nccc(C(F)(F)F)n1 [CBK006263] | 99.0312%
36 | O=C(CN1CCOCC1)c1ccc(O)o1 [CBK019286] | 123.187%
37 | O=c1[nH]c(CSc2nnc(CCCOc3ccc(Cl)cc3Cl)o2)nc2ccccc12 [CBK268861] | 120.543%
38 | O=C(c1ccsc1NS(=O)(=O)Cc1ccccc1[N+](=O)[O-])N1CCOCC1 [CBK042294] | 126.209%
39 | CC(C)(C)OC(=O)N1CCc2[nH]nc(Nc3ccccc3)c2C1 [CBK281541] | 124.505%
40 | CC1CCN(C(C)Cn2cncc2-c2cnn(C)c2)CC1 (centres unmarked) [CBK281703] | 132.618%
41 | CC(C)(C)c1cc(C(=O)Cn2c(=N)n(Cc3ccccc3)c3ccccc32)cc(C(C)(C)C)c1O [CBK262480B] | 7.944%
42 | Cc1ccc(NC(=O)CC2SC(NC3CCCCC3)=NC2=O)c(C)c1 (centres unmarked) [CBK059500] | 122.55%
43 | CC(C)Cc1nc(Cn2cnc3c(cnn3C)c2=O)no1 [CBK306256] | 143.78%
44 | O=C(O)Cn1nnc(-c2ccc(OCc3cccc(C(F)(F)F)c3)cc2)n1 [CBK267034] | 158.649%
45 | COc1cc(C(=O)NC/C=N/O)cc(OC)c1OC [CBK015662] | 98.2866%
46 | COc1ccc2cc(C#N)c(SCC(=O)Nc3ccc(F)cc3)nc2c1 [CBK068765] | 100%
47 | COCCCN1C(=O)C(O)=C(C(=O)c2ccc(C)o2)C1c1ccc(Br)cc1 (centres unmarked) [CBK264876] | 129.046%
48 | Cc1cc2[nH]cc(C(=O)N3CCCC3c3ccco3)c(=O)n2n1 (centres unmarked) [CBK307390] | 109.092%
49 | CCCS(=O)(=O)Nc1cccc(-c2nnn[nH]2)c1 [CBK155417] | 84.0423%
50 | CC(=O)N1CCC(c2nc(C3CCCC3)no2)C1 (centres unmarked) [CBK285452] | 145.926%
51 | Cc1ccc(S(=O)(=O)N(C)C)cc1NC(=O)C12CCC(C)(C(=O)C1)C2(C)C (centres unmarked) [CBK266551] | 129.554%
52 | COc1cc(C=O)ccc1OCC(=O)Nc1ccc(C)c(Cl)c1 [CBK266190] | 130.502%
53 | Cc1cccc(C(=O)N2CCN(S(=O)(=O)c3sc(C(=O)O)c(C)c3C(=O)O)CC2)c1 [CBK297124] | 123.648%
54 | COc1cccc(C(=O)N2CCC(NC(=O)c3csc(-c4ccccc4)n3)CC2)c1 [CBK155030] | 138.052%

Row | Compound | % of control remaining
55 | Cc1nc(-c2ccccc2)sc1CNC(=O)C1CC1C (centres unmarked) [CBK092369] | 125.673%
56 | Cc1cc(C)n(C(CC(=O)c2ccccc2)C(=O)O)n1 (centres unmarked) [CBK287209] | 129.83%
57 | COc1ccc(-c2nc3ccc(C)cc3c(C(=O)NCCc3ccc(S(N)(=O)=O)cc3)c2C)cc1 [CBK267753] | 84.7352%
58 | Cc1nc2c(OCc3ccc(F)c(F)c3)cccn2c1N(C)CC1CC1 [CBK147276] | 107.21%
59 | O=C(c1sccc1NS(=O)(=O)c1ccc(Oc2ccccc2)cc1)N1CCOCC1 [CBK050423] | 110.086%
60 | CC(C)NC(=O)[C@@H]1CN(C)C[C@]12CCc1ccccc1C2=O [CBK284764] | 132.847%
61 | c1ccc(-c2nn3c(CN4CCOCC4)nnc3c3ccccc23)cc1 [CBK269779] | 155.398%
62 | CN1CC=C(/C=C/c2ccc(Sc3ncccn3)o2)CC1 [CBK283797] | 116.704%
63 | CCN(Cc1ccncc1)C(=O)NCCCSC [CBK155125] | 118.541%
64 | O=C(NCCCc1ccccn1)c1cnn(-c2ccc(F)cc2)c1 [CBK283287] | 109.876%
65 | Cc1nc(C2(O)CCCN(Cc3cccc(F)c3)CC2)sc1CCOc1ccccc1 (centres unmarked) [CBK286024] | 86.1398%
66 | CCN(CC)c1c(C)nc2ccc(C(=O)NCCc3ccccn3)cn12 [CBK145951] | 90.2637%
67 | C=CCn1c(Cc2csc(NC(=O)c3ccc([N+](=O)[O-])cc3)n2)n[nH]c1=S [CBK295290] | 152.2%
68 | O=C(O)CCSc1nc2ccccc2nc1C(F)(F)F [CBK107866] | 80.2644%
69 | Cc1cc(C)cc(OCc2nnc(SCC(=O)Nc3c(F)cc(F)cc3Br)n2C)c1 [CBK268604] | 132.468%
70 | Oc1nsnc1-c1ccccc1 [CBK026014] | 157.475%
71 | CCOC(=O)N(C)c1c(CC)nc2ccc(C(=O)N(C)CCCN(C)C)cn12 [CBK146478] | 133.361%
72 | OC(COCc1ccccc1)CN1CCN(Cc2ccccc2)CC1 (centres unmarked) [CBK278297C] | 100%
73 | Cc1ccc2[nH]c3c(c2c1)CCNC31CCN(C(=O)[C@@H]2CCCC[C@@H]2C(=O)O)CC1 [CBK047222] | 114.478%
74 | O=C(COc1ccccc1)c1cn(CC(=O)N2CCc3ccccc32)c2ccccc12 [CBK267659] | 133.205%
75 | [O-][S+](c1ccc(Cl)c(Cl)c1)c1cc2c(N3CCCNCC3)nccc2s1 (centres unmarked) [CBK038304C] | 103.604%
76 | COc1ccc(C(=O)N2CCC3(CCN(C(=O)CC4CCCCC4)C3)C2)cc1OC (centres unmarked) [CBK131770] | 104.797%
77 | O=C1COc2ccccc2CCCCC2(CCCNC2)CN1 (centres unmarked) [CBK292166] | 149.967%
78 | Cc1cc(Cl)ccc1OCCCC(=O)N1CCc2ccccc21 [CBK059016] | 114.536%
79 | CCOC(=O)c1c(C)n(-c2ccc(C)cc2)c2ccc(Oc3ncccc3C#N)cc12 [CBK261310] | 121.323%
80 | Cc1cc(C)n2ncc(C(=O)N3CCCC3c3ccc(F)cc3)c2n1 (centres unmarked) [CBK305885] | 99.7012%

Copied from above: nos. 63–67
Row | Compound | % of control remaining
63 | CCN(Cc1ccncc1)C(=O)NCCCSC [CBK155125] | 118.541%
64 | O=C(NCCCc1ccccn1)c1cnn(-c2ccc(F)cc2)c1 [CBK283287] | 109.876%
65 | Cc1nc(C2(O)CCCN(Cc3cccc(F)c3)CC2)sc1CCOc1ccccc1 (centres unmarked) [CBK286024] | 86.1398%
66 | CCN(CC)c1c(C)nc2ccc(C(=O)NCCc3ccccn3)cn12 [CBK145951] | 90.2637%
67 | C=CCn1c(Cc2csc(NC(=O)c3ccc([N+](=O)[O-])cc3)n2)n[nH]c1=S [CBK295290] | 152.2%
